Consider one compound from patent publication US20240254066A1, “RESCORCINOLS, METHODS FOR THEIR MANUFACTURE, AND USES THEREOF” (GW Research Limited, priority 2021, published 2024).

Molecules are shown by their SMILES.

This series deals with tonic hind limb extensor convulsions (mouse model of generalised seizure). Briefly: mini-MEST (maximal electroshock seizure threshold) test in the mouse. The settings on record: diazepam 2.5 mg/kg i.p., test 30 min post dose; current producing tonic hind limb extension in 50% of animals. As for the experimental part: The efficacy of novel resorcinols 2, 3, 5, 8, 10, 15, 16, 17, 18, 19, 41 45, 46, 53, 56 and 58 were tested in a novel mouse model of generalised seizure, the mini-MEST (maximal electroshock seizure threshold) test, which uses lower n numbers than typically used.
The maximal electroshock seizure threshold (MEST) test is widely utilized preclinically to evaluate pro- or anti-convulsant properties of test compounds (Loscher et al., 1991).
In the MEST test the ability of a drug to alter the seizure threshold current required to induce hind limb tonic extensor convulsions is measured according to an “up and down” method of shock titration (Kimball et al., 1957). An increase in seizure threshold is indicative of anti-convulsant effect.
The ability of a test compound to alter the stimulus intensity, expressed as current (mA), required to induce the presence of tonic hind limb extensor convulsions, is assessed in the MEST.
Naïve mice were acclimatised to the procedure room in their home cages for up to 7 days, with food and water available ad libitum. […]
Test compound effects were also calculated as percentage change in CC50 from the vehicle control group.
Significant difference between drug-treated animals and controls were assessed according to Litchfield and Wilcoxon (1949).
On the technique in general: The maximal electroshock test induces tonic seizures with an electrical stimulus.

`CN1C(=O)CN=C(c2ccccc2)c2cc(Cl)ccc21` [Diazepam, diazepam, reference compound]: the “CC50 +/− SEM” value is 85.0-128.0 mA.
